At least one structure is not confirmed: it was looked up by name or label, or the drawing left a doubt.
Experiments:
Assay type in all cases: cell-based
[1] = system: C17, C666.1, SNU719 and YCCLE1 cells; experiment: MTS cell viability, inhibitor combined with HLA matched allogeneic EBV-specific T cells (Example 3); details: combination with HLA matched EBV-specific T cells 25:1 vs individual treatment, 48 hrs; MEK1/2 inhibitors 1 μM, JQ1 2.5 μM
Experimental: The data are represented as the mean±SD from three independent experiments. P-values were calculated using one-way ANOVA: ns=not significant, *=p<0.05, **=p<0.01, ***=p<0.001 and ****=p<0.0001.
The data are represented as the mean±SD from three independent experiments.

SNU719 and C666.1 cells = experiment: MTS cell viability with HLA-mismatched versus HLA-matched T cells and inhibitors; details: for cell viability: 48 hrs
Experimental: FIG. 12: Combination of MEK1/2 inhibitors with HLA mismatched allogeneic-specific T cells. […] The data are represented as the mean±SD from three independent experiments. P-values were calculated using one-way ANOVA: ns=not significant, *=p<0.05, **=p<0.01, ***=p<0.001 and ****=p<0.0001.
FIG. 16: Combination of JQ1 inhibitors with HLA mismatched all T cells. […] The data are represented as the mean±SD from three independent experiments. P-values were calculated using one-way ANOVA: ns=not significant, *=p<0.05, **=p<0.01, ***=p<0.001 and ****=p<0.0001.
Next, we wanted to determine the specificity of the combination and as such we challenged SNU719 and C666.1 cells with HLA-mismatched allogeneic T cells alongside MEK1/2 inhibitors (both selumetanib and trematinib), individually and in combination.
Next, we wanted to determine the specificity of the combination and as such we challenged SNU719 and C666.1 cells with HLA-mismatch allogeneic T cells alongside JQ1 inhibitor individually and in combination.

SNU719 cells [2] = experiment: Annexin V binding assay, inhibitor combined with EBV-specific T cells; details: combination with EBV-specific T cells (25:1) vs individual treatment, 48 hrs; AZD6244 0.5 μM, trematinib 1.0 μM, JQ1 5.0 μM
SNU719 cells [3] = experiment: MTS cell viability, inhibitor combined with EBV-specific T cells (Example 2); details: combination with EBV-specific T cells (25:1) vs individual treatment, 48 hrs; AZD6244 0.5 μM, trematinib 1.0 μM, JQ1 5.0 μM
SNU719 cells [4] = experiment: Xcellegence growth curve (Example 2); details: dual combination with EBV-specific T cells vs individual treatment

## CC(=O)Nc1cccc(-n2c(=O)n(C3CC3)c(=O)c3c(Nc4ccc(I)cc4F)n(C)c(=O)c(C)c32)c1 [trematinib]
[1]
  cell viability: significantly reduced
SNU719 and C666.1 cells; MEK1/2 inhibitors 1 μM, JQ1 2.5 μM, T cells 25:1
  effect of HLA-matched vs HLA-mismatched T cells in presence of inhibitor: significantly amplified
SNU719 and C666.1 cells; combination with HLA-mismatch allogeneic T cells 25:1 vs DMSO treated control
  cell viability: significant reduction in cell viability
SNU719 and C666.1 cells; combination with HLA-mismatch allogeneic T cells 25:1 vs inhibitor alone
  cell viability: no significant reduction in cell viability
SNU719 cells [2]
  binding of Annexin V among SNU719 cells: significantly higher binding of Annexin V
SNU719 cells [3]
  cell viability of SNU719: significantly reduced
SNU719 cells [4]
  rate of cell death (Xcellegence): faster cell death
